Reference: article PMC6755085, “Cyclic oligoadenylate signalling mediates Mycobacterium tuberculosis CRISPR defence” (Nucleic Acids Research, 2019)

Chains of the proteins cited; added tags and fusions are not shown. Lines headed by an entry give the natural chain unless they say otherwise; changes in a name come on top.
UniProt P9WJF9: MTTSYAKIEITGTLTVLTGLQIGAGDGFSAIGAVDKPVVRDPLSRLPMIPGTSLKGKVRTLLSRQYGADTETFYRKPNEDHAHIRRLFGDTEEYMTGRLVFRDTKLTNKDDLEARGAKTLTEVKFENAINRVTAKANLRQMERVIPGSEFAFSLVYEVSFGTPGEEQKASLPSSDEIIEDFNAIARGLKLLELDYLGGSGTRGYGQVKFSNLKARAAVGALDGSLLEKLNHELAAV

Target: T1, Mycobacterium tuberculosis Csm4 (Cas5), His6-tagged (Mycobacterium tuberculosis) (UniProt P9WJF6)
T1 sequence: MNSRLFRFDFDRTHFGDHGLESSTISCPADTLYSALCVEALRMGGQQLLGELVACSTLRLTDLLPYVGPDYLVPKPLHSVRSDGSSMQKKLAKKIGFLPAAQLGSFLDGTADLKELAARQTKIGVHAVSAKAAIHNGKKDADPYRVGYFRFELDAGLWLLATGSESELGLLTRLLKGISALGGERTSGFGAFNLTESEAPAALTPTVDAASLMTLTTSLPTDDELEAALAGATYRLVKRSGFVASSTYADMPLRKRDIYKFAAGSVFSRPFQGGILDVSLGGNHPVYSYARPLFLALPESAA
Experiment: pull-down

Substance: Mycobacterium tuberculosis Csm3 (Cas7) (from UniProt P9WJF9)
- binding: binds

Results are given in words; binding and its absence hold for the method and conditions named. In cells and extracts the contact can be indirect. Binding calls can cover weak binding; strength is not graded here. Sequences can lack the tags named with a protein.
